The supplement of paper PMC10849652
Some of the results follow.

Sequences of proteins named here, by UniProt entry; tags and fusion partners are left off. A change or cut given only in a name is not applied to a line headed by its entry.
UniProt Q8NI60: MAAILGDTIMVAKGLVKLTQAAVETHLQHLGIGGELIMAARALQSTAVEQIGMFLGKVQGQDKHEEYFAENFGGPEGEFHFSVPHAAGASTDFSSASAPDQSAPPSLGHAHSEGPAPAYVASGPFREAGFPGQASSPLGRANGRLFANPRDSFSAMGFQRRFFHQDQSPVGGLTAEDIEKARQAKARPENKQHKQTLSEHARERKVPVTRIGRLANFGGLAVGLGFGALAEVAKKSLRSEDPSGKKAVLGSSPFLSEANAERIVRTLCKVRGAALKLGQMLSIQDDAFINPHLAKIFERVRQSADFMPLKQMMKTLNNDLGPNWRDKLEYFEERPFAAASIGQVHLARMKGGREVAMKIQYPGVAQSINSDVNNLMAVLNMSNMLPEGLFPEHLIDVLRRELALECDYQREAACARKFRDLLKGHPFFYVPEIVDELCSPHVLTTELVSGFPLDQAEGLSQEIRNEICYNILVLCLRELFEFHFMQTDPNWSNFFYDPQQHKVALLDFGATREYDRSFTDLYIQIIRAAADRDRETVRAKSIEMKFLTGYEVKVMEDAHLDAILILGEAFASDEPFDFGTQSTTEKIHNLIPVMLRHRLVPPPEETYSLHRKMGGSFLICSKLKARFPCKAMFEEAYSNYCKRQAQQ
UniProt P31327: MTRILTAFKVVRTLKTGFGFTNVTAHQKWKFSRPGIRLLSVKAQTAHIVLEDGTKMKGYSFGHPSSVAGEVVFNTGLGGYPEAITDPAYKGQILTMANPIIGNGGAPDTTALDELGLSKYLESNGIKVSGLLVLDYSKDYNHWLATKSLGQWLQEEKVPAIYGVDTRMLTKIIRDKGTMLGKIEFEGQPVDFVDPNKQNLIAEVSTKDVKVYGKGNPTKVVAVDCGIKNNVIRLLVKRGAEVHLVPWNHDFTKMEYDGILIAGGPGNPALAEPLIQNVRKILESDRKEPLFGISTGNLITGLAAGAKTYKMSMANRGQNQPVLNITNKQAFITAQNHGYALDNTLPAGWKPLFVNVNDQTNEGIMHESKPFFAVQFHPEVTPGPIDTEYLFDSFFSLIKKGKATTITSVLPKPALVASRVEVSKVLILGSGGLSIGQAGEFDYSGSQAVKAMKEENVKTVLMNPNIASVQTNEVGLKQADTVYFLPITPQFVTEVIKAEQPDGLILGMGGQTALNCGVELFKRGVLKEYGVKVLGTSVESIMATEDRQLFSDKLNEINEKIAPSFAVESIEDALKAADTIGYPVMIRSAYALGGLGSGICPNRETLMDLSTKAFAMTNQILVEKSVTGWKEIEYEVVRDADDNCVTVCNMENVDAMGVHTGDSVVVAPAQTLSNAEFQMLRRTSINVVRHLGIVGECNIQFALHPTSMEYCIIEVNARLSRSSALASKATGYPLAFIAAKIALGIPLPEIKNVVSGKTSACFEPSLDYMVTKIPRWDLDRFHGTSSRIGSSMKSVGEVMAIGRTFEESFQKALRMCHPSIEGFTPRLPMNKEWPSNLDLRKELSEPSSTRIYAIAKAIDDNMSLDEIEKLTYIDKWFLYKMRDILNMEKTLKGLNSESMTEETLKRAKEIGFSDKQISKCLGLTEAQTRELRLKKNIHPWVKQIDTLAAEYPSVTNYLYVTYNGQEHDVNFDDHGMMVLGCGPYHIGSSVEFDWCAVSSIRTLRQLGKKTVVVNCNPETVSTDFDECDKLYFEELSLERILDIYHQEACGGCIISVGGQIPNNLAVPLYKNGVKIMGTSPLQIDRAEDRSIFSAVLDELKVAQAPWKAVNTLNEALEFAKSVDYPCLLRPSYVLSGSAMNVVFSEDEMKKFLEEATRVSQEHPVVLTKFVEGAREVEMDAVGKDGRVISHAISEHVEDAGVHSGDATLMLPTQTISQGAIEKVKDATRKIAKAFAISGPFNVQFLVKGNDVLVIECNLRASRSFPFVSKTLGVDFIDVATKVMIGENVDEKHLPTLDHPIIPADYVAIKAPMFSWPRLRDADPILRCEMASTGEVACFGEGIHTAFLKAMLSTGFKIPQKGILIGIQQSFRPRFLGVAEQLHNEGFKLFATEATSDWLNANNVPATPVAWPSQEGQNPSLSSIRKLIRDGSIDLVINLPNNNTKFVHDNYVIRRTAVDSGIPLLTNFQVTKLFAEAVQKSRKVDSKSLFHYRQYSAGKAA
UniProt Q8N8Q8: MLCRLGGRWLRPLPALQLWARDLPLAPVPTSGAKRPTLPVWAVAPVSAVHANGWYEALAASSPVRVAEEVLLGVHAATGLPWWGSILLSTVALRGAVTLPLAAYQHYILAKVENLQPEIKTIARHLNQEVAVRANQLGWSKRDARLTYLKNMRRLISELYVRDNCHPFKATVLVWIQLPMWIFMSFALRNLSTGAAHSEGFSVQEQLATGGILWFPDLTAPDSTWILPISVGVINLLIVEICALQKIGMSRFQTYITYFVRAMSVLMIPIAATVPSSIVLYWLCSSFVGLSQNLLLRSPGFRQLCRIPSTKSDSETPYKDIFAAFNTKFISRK
UniProt P53621: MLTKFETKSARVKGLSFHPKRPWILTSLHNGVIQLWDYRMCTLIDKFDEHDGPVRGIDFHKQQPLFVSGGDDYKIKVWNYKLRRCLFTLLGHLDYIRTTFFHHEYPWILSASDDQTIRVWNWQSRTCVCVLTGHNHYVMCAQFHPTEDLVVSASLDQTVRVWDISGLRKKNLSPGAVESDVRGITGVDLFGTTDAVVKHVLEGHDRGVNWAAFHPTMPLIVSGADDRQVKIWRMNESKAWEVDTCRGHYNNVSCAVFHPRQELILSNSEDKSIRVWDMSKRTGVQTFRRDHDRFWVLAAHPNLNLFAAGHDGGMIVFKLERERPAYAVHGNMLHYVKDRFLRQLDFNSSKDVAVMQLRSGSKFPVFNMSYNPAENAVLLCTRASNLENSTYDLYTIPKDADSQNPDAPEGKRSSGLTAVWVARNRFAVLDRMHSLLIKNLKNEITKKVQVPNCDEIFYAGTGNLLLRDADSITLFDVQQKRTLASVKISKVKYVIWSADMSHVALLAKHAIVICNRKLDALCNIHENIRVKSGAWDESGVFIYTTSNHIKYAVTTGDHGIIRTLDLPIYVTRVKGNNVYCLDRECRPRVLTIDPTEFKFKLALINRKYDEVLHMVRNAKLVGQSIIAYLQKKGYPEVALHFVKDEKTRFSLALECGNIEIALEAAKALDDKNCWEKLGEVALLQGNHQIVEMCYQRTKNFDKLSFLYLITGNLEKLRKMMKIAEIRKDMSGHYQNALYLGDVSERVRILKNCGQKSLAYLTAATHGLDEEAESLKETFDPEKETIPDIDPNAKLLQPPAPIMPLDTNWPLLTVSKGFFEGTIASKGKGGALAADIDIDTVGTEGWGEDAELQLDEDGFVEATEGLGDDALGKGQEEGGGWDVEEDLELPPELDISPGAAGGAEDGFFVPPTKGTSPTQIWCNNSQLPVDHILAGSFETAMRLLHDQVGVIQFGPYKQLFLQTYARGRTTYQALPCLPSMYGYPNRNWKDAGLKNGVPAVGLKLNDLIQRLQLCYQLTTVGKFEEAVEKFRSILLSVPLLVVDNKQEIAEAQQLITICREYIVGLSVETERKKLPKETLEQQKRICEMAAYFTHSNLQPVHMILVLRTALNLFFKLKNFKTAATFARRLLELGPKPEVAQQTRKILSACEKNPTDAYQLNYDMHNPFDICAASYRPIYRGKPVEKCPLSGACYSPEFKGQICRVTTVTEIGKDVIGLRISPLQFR
UniProt Q14019: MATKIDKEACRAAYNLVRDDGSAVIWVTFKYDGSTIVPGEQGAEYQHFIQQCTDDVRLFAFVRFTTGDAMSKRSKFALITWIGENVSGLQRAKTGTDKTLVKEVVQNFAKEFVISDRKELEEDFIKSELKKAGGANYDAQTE
UniProt Q9H9Q2: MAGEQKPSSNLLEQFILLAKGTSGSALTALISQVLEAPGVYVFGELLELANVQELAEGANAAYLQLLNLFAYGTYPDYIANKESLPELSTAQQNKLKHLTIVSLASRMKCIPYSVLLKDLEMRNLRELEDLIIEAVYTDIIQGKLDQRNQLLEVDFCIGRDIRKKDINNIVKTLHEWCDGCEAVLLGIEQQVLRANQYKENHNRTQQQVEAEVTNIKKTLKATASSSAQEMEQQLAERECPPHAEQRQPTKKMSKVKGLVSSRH
UniProt Q8IYK4: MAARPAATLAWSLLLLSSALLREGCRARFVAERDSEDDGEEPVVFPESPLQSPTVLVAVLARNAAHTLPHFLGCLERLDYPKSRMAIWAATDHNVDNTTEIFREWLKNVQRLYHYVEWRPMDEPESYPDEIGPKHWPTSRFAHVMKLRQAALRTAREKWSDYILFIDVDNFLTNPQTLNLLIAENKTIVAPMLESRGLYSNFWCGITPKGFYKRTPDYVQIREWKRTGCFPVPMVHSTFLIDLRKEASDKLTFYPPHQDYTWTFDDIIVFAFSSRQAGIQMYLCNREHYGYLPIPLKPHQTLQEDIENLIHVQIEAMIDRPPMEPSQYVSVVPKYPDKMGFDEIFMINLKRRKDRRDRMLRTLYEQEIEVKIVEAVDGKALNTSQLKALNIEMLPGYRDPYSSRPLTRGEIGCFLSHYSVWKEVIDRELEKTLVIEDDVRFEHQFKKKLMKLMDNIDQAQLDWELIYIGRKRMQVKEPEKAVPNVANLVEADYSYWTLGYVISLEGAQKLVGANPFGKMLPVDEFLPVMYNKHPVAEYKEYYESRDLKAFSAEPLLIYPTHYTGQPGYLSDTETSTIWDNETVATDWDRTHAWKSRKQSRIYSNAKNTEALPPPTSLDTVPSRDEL
UniProt Q9Y6M4: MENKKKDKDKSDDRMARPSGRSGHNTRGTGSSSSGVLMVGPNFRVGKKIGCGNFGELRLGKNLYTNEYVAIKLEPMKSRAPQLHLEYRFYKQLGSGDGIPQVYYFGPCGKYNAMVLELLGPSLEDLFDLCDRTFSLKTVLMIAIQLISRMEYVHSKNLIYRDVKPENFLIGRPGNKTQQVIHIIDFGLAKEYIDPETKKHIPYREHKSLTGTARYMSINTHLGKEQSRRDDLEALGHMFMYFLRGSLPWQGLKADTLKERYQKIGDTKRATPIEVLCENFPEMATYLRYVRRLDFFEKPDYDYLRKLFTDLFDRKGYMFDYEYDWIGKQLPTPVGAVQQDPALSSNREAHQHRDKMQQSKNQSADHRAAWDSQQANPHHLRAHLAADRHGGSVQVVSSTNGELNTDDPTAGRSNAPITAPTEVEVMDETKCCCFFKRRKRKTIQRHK
UniProt Q9UBF2: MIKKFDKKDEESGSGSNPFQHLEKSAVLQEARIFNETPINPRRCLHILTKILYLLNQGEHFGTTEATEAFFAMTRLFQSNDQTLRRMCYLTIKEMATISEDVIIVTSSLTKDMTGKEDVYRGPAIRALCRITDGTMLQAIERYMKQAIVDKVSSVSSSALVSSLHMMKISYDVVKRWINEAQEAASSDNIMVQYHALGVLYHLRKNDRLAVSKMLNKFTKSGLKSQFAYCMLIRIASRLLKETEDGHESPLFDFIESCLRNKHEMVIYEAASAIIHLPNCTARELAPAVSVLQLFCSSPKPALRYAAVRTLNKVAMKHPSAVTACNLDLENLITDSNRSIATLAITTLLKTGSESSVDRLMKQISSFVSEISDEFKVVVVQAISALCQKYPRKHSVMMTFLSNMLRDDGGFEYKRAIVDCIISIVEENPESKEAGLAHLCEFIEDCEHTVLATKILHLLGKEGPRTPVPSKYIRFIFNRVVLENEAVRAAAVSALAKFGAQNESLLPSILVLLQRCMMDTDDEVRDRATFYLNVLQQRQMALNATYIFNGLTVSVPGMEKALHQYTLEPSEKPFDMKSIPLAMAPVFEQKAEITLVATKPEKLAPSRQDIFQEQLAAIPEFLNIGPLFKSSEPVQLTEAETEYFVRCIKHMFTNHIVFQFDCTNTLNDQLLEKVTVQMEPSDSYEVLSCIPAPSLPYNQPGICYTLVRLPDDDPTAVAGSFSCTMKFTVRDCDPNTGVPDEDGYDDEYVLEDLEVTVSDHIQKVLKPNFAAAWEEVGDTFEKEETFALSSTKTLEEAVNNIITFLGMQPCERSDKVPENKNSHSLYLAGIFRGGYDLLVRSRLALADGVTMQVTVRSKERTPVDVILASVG
UniProt Q92905, whole entry, looked up: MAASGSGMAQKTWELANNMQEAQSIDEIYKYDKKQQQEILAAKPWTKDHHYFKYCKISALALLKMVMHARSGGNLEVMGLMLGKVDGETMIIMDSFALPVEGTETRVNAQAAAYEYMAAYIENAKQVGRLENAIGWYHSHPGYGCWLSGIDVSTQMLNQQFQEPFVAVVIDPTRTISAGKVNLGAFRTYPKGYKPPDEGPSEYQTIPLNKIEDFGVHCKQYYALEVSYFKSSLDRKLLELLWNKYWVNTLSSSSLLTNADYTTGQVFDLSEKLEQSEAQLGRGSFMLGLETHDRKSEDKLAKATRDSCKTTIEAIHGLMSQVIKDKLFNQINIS

What was measured:
Assay in all cases: log2 fold change, soluble protein after heating vs DMSO (PISA); higher = thermal stabilisation; K562 cells, 10 uM, 30 min; active = over 0.2 and 3.5 SD of the protein, either way, in both replicates (recomputed)
[1] = compound: CS(=O)(=O)c1ccc(-c2cnc(N)c(C(=O)Nc3ccccc3)n2)cc1
How it was run: (§1)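 K562 cells at 2×10^6 cells/mL were given 10 μM compound for 30 min. Aliquots then went through 3 min of heating across 48°C-58°C, were pooled, and were extracted in PBS with 0.5% NP-40 at 4°C, and the supernatant after 21,000xg for 90 min was quantified by TMTpro 16plex LC-MS/MS with channel sums equalised. Thermal stability relative to control samples, from duplicates, is given as log2 fold change.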

crizotinib = compound: C[C@@H](Oc1cc(-c2cnn(C3CCNCC3)c2)cnc1N)c1c(Cl)ccc(F)c1Cl [crizotinib]
How it was run: as §1

[2] = compound: C[C@@H]1COCCN1C2=NC(=NC(=C2)C3(CC3)S(=O)(=O)C)C4=C5C=CNC5=CC=C4
How it was run: as §1

[3] = compound: C[C@H](C1=CC=C(C=C1)C(=O)NC2=C3C=CNC3=NC=C2)N
How it was run: as §1

duvelisib = compound: C[C@H](Nc1ncnc2nc[nH]c12)c1cc2cccc(Cl)c2c(=O)n1-c1ccccc1 [duvelisib]
How it was run: as §1

gandotinib = compound: Cc1cc(Nc2cc(CN3CCOCC3)c3nc(C)c(Cc4ccc(Cl)cc4F)n3n2)n[nH]1 [gandotinib]
How it was run: as §1

tozasertib = compound: Cc1cc(Nc2cc(N3CCN(C)CC3)nc(Sc3ccc(NC(=O)C4CC4)cc3)n2)n[nH]1 [tozasertib]
How it was run: as §1

[4] = compound: Cc1cc(SCc2sc(-c3ccc(C(F)(F)F)cc3)nc2C)ccc1OCC(=O)O
How it was run: as §1

doramapimod = compound: Cc1ccc(-n2nc(C(C)(C)C)cc2NC(=O)Nc2ccc(OCCN3CCOCC3)c3ccccc23)cc1 [doramapimod]
How it was run: as §1

ispinesib = compound: Cc1ccc(C(=O)N(CCCN)[C@@H](c2nc3cc(Cl)ccc3c(=O)n2Cc2ccccc2)C(C)C)cc1 [ispinesib]
How it was run: as §1

bafetinib = compound: Cc1ccc(NC(=O)c2ccc(CN3CC[C@H](N(C)C)C3)c(C(F)(F)F)c2)cc1Nc1nccc(-c2cncnc2)n1 [bafetinib]
How it was run: as §1

[5] = compound: Cc1cccc(CC(=O)N2CCc3c2ccc(-c2cn(C)c4ncnc(N)c24)c3F)n1
How it was run: as §1

nilotinib = compound: Cc1cn(-c2cc(NC(=O)c3ccc(C)c(Nc4nccc(-c5cccnc5)n4)c3)cc(C(F)(F)F)c2)cn1 [nilotinib]
How it was run: as §1

[6] = compound: Cc1nc(Nc2n[nH]c3c2CN(C(=O)N[C@H](CN(C)C)c2ccccc2)C3(C)C)c2sccc2n1
How it was run: as §1

dasatinib = compound: Cc1nc(Nc2ncc(C(=O)Nc3c(C)cccc3Cl)s2)cc(N2CCN(CCO)CC2)n1 [dasatinib]
How it was run: as §1

[7] = compound: Cc1ncc(-c2ccnc(Nc3ccc(S(C)(=O)=O)cc3)n2)n1C(C)C
How it was run: as §1

[8] = compound: Cn1cc(-c2ccc3c(c2)CCN3C(=O)Cc2cccc(C(F)(F)F)c2)c2c(N)ncnc21
How it was run: as §1

[9] = compound: Cn1cc(-c2ccc3nnc(C(F)(F)c4ccc5ncccc5c4)n3n2)cn1
How it was run: as §1

tipifarnib = compound: Cn1cncc1[C@@](N)(c1ccc(Cl)cc1)c1ccc2c(c1)c(-c1cccc(Cl)c1)cc(=O)n2C [tipifarnib]
How it was run: as §1

mubritinib = compound: FC(F)(F)c1ccc(/C=C/c2nc(COc3ccc(CCCCn4ccnn4)cc3)co2)cc1 [mubritinib]
How it was run: as §1

Measured: log2 fold change

COQ8A (UniProt Q8NI60)
inactive: [1] 0.024 | crizotinib -0.031 | [2] 0.033 | [3] -0.019 | duvelisib 0.04 | gandotinib 0.058 | tozasertib 0.01 | [4] 0.028 | doramapimod -0.006 | ispinesib 0.055 | bafetinib -0.088 | [5] -0.006 | nilotinib -0.055 | [6] 0.108 | dasatinib -0.244 | [7] -0.04 | [8] 0.069 | [9] -0.047 | tipifarnib -0.103 | mubritinib 0.023

CPS1 isoform 3 (UniProt P31327)
inactive: [1] 0.05 | crizotinib 0.306 | [2] 0.014 | [3] 0.09 | duvelisib 0.123 | gandotinib -0.054 | tozasertib 0.164 | [4] -0.212 | doramapimod 0.007 | ispinesib -0.039 | bafetinib -0.011 | [5] -0.077 | nilotinib 0.029 | [6] -0.055 | dasatinib -0.029 | [7] 0.199 | [8] 0.158 | [9] 0.03 | tipifarnib 0.029 | mubritinib -0.19

COX18 (UniProt Q8N8Q8)
inactive: [1] 0.015 | crizotinib -0.06 | [2] 0.037 | [3] -0.016 | duvelisib 0.05 | gandotinib -0.016 | tozasertib -0.01 | [4] -0.008 | doramapimod -0.05 | ispinesib -0.048 | bafetinib -0.089 | [5] -0.053 | nilotinib -0.025 | [6] 0.005 | dasatinib -0.011 | [7] -0.063 | [8] 0.082 | [9] 0.028 | tipifarnib 0.056 | mubritinib 0.055

COQ6 (UniProt Q9Y2Z9)
inactive: [1] 0.069 | crizotinib 0.021 | [2] 0.087 | [3] 0.015 | duvelisib 0.044 | gandotinib 0.169 | tozasertib -0.023 | [4] 0.048 | doramapimod -0.051 | ispinesib 0.008 | bafetinib -0.03 | [5] 0.064 | nilotinib 0.034 | [6] -0.051 | dasatinib -0.093 | [7] -0.053 | [8] 0.064 | [9] 0.074 | tipifarnib -0.056 | mubritinib 0.042

COPE (UniProt O14579)
inactive: [1] 0.031 | crizotinib 0.067 | [2] 0.092 | [3] 0.145 | duvelisib 0.048 | gandotinib 0.011 | tozasertib 0.073 | [4] -0.007 | doramapimod 0.01 | ispinesib 0.061 | bafetinib -0.007 | [5] -0.034 | nilotinib -0.013 | [6] -0.019 | dasatinib -0.03 | [7] -0.016 | [8] -0.076 | [9] -0.045 | tipifarnib 0.011 | mubritinib 0.046

COPA isoform 2 (UniProt P53621)
inactive: [1] 0.009 | crizotinib 0.057 | [2] 0.033 | [3] 0.002 | duvelisib 0.042 | gandotinib -0.017 | tozasertib 0.003 | [4] 0.043 | doramapimod -0.026 | ispinesib 0.131 | bafetinib -0.015 | [5] 0 | nilotinib -0.006 | [6] -0.025 | dasatinib -0.038 | [7] 0.001 | [8] 0.001 | [9] -0.021 | tipifarnib -0.011 | mubritinib 0.019

COTL1 (UniProt Q14019)
inactive: [1] 0.033 | crizotinib -0.001 | [2] 0.064 | [3] -0.114 | duvelisib -0.009 | gandotinib -0.089 | tozasertib 0.053 | [4] -0.025 | doramapimod 0.012 | ispinesib 0.109 | bafetinib -0.001 | [5] 0.035 | nilotinib -0.004 | [6] -0.033 | dasatinib 0.003 | [7] -0.001 | [8] -0.009 | [9] 0.014 | tipifarnib -0.072 | mubritinib 0.044

COPB1 (UniProt P53618)
inactive: [1] -0.016 | crizotinib 0.027 | [2] 0.048 | [3] -0.046 | duvelisib 0.03 | gandotinib -0.038 | tozasertib 0.011 | [4] 0.03 | doramapimod -0.022 | ispinesib 0.114 | bafetinib 0.009 | [5] 0.032 | nilotinib -0.024 | [6] -0.016 | dasatinib -0.052 | [7] -0.01 | [8] 0.003 | [9] -0.019 | tipifarnib -0.056 | mubritinib 0.028

COPS7B (UniProt Q9H9Q2)
inactive: [1] 0.029 | crizotinib 0.014 | [2] -0.097 | [3] -0.109 | duvelisib 0.022 | gandotinib -0.051 | tozasertib 0.035 | [4] -0.05 | doramapimod -0.058 | ispinesib 0.096 | bafetinib -0.03 | [5] 0 | nilotinib 0.046 | [6] -0.003 | dasatinib 0.017 | [7] 0.012 | [8] -0.001 | [9] -0.005 | tipifarnib -0.014 | mubritinib 0.007

CREB1 (UniProt P16220)
inactive: [1] 0.023 | crizotinib 0.101 | [2] 0.001 | [3] -0.088 | duvelisib 0.061 | gandotinib 0.058 | tozasertib -0.02 | [4] -0.121 | doramapimod -0.005 | ispinesib -0.015 | bafetinib -0.019 | [5] 0.016 | nilotinib -0.006 | [6] -0.022 | dasatinib 0.016 | [7] 0 | [8] 0.061 | [9] -0.01 | tipifarnib 0.025 | mubritinib -0.029

2 consecutive records from above, for reference:
COPA isoform 2 (UniProt P53621)
inactive: [1] 0.009 | crizotinib 0.057 | [2] 0.033 | [3] 0.002 | duvelisib 0.042 | gandotinib -0.017 | tozasertib 0.003 | [4] 0.043 | doramapimod -0.026 | ispinesib 0.131 | bafetinib -0.015 | [5] 0 | nilotinib -0.006 | [6] -0.025 | dasatinib -0.038 | [7] 0.001 | [8] 0.001 | [9] -0.021 | tipifarnib -0.011 | mubritinib 0.019

COTL1 (UniProt Q14019)
inactive: [1] 0.033 | crizotinib -0.001 | [2] 0.064 | [3] -0.114 | duvelisib -0.009 | gandotinib -0.089 | tozasertib 0.053 | [4] -0.025 | doramapimod 0.012 | ispinesib 0.109 | bafetinib -0.001 | [5] 0.035 | nilotinib -0.004 | [6] -0.033 | dasatinib 0.003 | [7] -0.001 | [8] -0.009 | [9] 0.014 | tipifarnib -0.072 | mubritinib 0.044

Additional entries follow:

COLGALT2 (UniProt Q8IYK4)
inactive: [1] 0.024 | crizotinib 0.046 | [2] -0.052 | [3] 0.152 | duvelisib -0.074 | gandotinib 0.042 | tozasertib 0.019 | [4] 0.049 | doramapimod 0.065 | ispinesib -0.034 | bafetinib 0.078 | [5] 0 | nilotinib -0.013 | [6] 0.052 | dasatinib 0.017 | [7] -0.07 | [8] -0.089 | [9] -0.009 | tipifarnib 0.114 | mubritinib -0.15

CRELD1 isoform 2 (UniProt Q96HD1)
inactive: [1] 0.259 | crizotinib -0.064 | [2] 0.151 | [3] 0.168 | duvelisib 0.101 | gandotinib -0.072 | tozasertib -0.155 | [4] 0.05 | doramapimod 0.013 | ispinesib -0.352 | bafetinib 0.047 | [5] -0.065 | nilotinib -0.298 | [6] -0.001 | dasatinib 0.052 | [7] 0.051 | [8] -0.023 | [9] 0.347 | tipifarnib 0.123 | mubritinib 0.026

CORO1B (UniProt Q9BR76)
inactive: [1] 0.027 | crizotinib 0.002 | [2] 0.079 | [3] -0.084 | duvelisib 0.025 | gandotinib -0.03 | tozasertib 0.014 | [4] 0.037 | doramapimod -0.022 | ispinesib 0.047 | bafetinib 0.033 | [5] 0.037 | nilotinib -0.017 | [6] -0.02 | dasatinib -0.031 | [7] -0.005 | [8] 0.108 | [9] -0.014 | tipifarnib -0.009 | mubritinib 0.049

CSNK1G3 (UniProt Q9Y6M4)
inactive: [1] 0.038 | crizotinib -0.237 | [2] -0.179 | [3] 0.154 | duvelisib -0.018 | gandotinib 0.012 | tozasertib 0 | [4] 0.067 | doramapimod 0.127 | ispinesib -0.172 | bafetinib 0.128 | [5] -0.018 | nilotinib 0.161 | [6] -0.025 | dasatinib 0.095 | [7] -0.002 | [8] 0 | [9] -0.048 | tipifarnib 0.075 | mubritinib -0.069

COPG2 (UniProt Q9UBF2)
inactive: [1] -0.002 | crizotinib 0.043 | [2] 0.035 | [3] -0.024 | duvelisib 0.011 | gandotinib -0.045 | tozasertib 0 | [4] 0.026 | doramapimod -0.021 | ispinesib 0.126 | bafetinib 0.008 | [5] 0.025 | nilotinib -0.034 | [6] 0 | dasatinib -0.059 | [7] -0.019 | [8] 0 | [9] -0.005 | tipifarnib 0.005 | mubritinib 0.028

COPS5 (UniProt Q92905)
inactive: [1] -0.031 | crizotinib -0.001 | [2] 0.026 | [3] -0.05 | duvelisib 0.009 | gandotinib -0.065 | tozasertib 0.011 | [4] -0.007 | doramapimod -0.018 | ispinesib 0.047 | bafetinib 0.024 | [5] 0.004 | nilotinib 0.008 | [6] -0.013 | dasatinib -0.013 | [7] -0.009 | [8] 0.061 | [9] -0.007 | tipifarnib -0.021 | mubritinib 0.049
